Source: PubChem BioAssay AID652243 (Drosophila RNAi Screening Center, 2013)

Screen: 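Knock-downs that decrease or increase androgen receptor reporter signal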 (primary screen)
Cell system: Drosophila S2R+ cells
Knock-down reagent: long dsRNA against Drosophila genes
Time to read-out: 72 h (48 h, then 24 h hormone)
Treatment: synthetic androgen R1881 at 10 nM for 24 h
Measurement: 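Per-well raw luminescence of the androgen-driven firefly reporter and of the Renilla control, two replicates each, without normalisation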
Reading the numbers: firefly reporter light: higher = more light from androgen-responsive reporter; Renilla control light: higher = more constitutive control signal (cell number, transfection)
Active means: 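Across duplicate plates, a knock-down whose log firefly/Renilla ratio shifted a set fold down or up from the GFP/LacZ control mean was a hit; the downward cut appears as both 1.5 and 3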
Meaning of the calls: active = hit: reporter lowered or raised; inactive = no hit
In all, the deposit lists about 24,000 reagents; this is an unselected part of those with a known target gene and a result. In the full data, 246 (1%) are marked active. 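Plates not normalised; calls are printed but the firefly/Renilla ratio behind them is not deposited; fold cut for lowering reported inconsistently.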 Raw values vary from plate to plate and are shown uncorrected. The numbers tell different reagents against one gene apart. A plus sign joins genes that one reagent is predicted to hit. The record does not give: the amount of reagent.

What is on record for CG12343?
firefly reporter light, replicate 1: 2.40e5; firefly reporter light, replicate 2: 1.86e5; Renilla control light, replicate 1: 1.64e6; Renilla control light, replicate 2: 1.32e6; activity call: inactive

How did the screen score rnh1 (ribonuclease H1)?
firefly reporter light, replicate 1: 2.70e5; firefly reporter light, replicate 2: 2.56e5; Renilla control light, replicate 1: 1.39e6; Renilla control light, replicate 2: 1.39e6; activity call: inactive

For Acp53Ea (Accessory gland protein 53Ea), what was measured?
firefly reporter light, replicate 1: 68163; firefly reporter light, replicate 2: 58459; Renilla control light, replicate 1: 1.07e6; Renilla control light, replicate 2: 1.07e6; activity call: inactive

With Pfdn1 (Prefoldin 1) #1, what does the deposit list?
firefly reporter light, replicate 1: 1.56e5; firefly reporter light, replicate 2: 1.57e5; Renilla control light, replicate 1: 2.16e6; Renilla control light, replicate 2: 1.42e6; activity call: inactive

For Pfdn1 (Prefoldin 1) #2, what does the deposit list?
firefly reporter light, replicate 1: 3.46e5; firefly reporter light, replicate 2: 3.44e5; Renilla control light, replicate 1: 7.68e5; Renilla control light, replicate 2: 6.03e5; activity call: inactive

What is on record for Hsp70Bb + Hsp70Ba + Hsp70Bbb?
firefly reporter light, replicate 1: 6.76e5; firefly reporter light, replicate 2: 8.06e5; Renilla control light, replicate 1: 1.96e6; Renilla control light, replicate 2: 1.70e6; activity call: inactive

What is on record for CG16879 (retired record) #1?
firefly reporter light, replicate 1: 3.19e5; firefly reporter light, replicate 2: 2.95e5; Renilla control light, replicate 1: 2.72e6; Renilla control light, replicate 2: 2.45e6; activity call: inactive

With CG16879 (retired record) #2, what does the deposit list?
firefly reporter light, replicate 1: 4.92e5; firefly reporter light, replicate 2: 1.02e6; Renilla control light, replicate 1: 1.35e6; Renilla control light, replicate 2: 2.42e6; activity call: inactive

How did the screen score Dark (Death-associated APAF1-related killer) #1?
firefly reporter light, replicate 1: 9.48e5; firefly reporter light, replicate 2: 8.81e5; Renilla control light, replicate 1: 1.71e6; Renilla control light, replicate 2: 1.12e6; activity call: inactive

With Dark (Death-associated APAF1-related killer) #2, what does the deposit list?
firefly reporter light, replicate 1: 3.80e5; firefly reporter light, replicate 2: 1.85e5; Renilla control light, replicate 1: 4.87e5; Renilla control light, replicate 2: 6.05e5; activity call: inactive

What is on record for Mer (Merlin)?
firefly reporter light, replicate 1: 73955; firefly reporter light, replicate 2: 62117; Renilla control light, replicate 1: 5.91e5; Renilla control light, replicate 2: 5.74e5; activity call: inactive

With CG15196 #1, what does the deposit list?
firefly reporter light, replicate 1: 7.09e5; firefly reporter light, replicate 2: 5.67e5; Renilla control light, replicate 1: 3.28e6; Renilla control light, replicate 2: 3.93e6; activity call: inactive

With CG15196 #2, how do the results read?
firefly reporter light, replicate 1: 5.64e5; firefly reporter light, replicate 2: 6.13e5; Renilla control light, replicate 1: 7.48e5; Renilla control light, replicate 2: 6.49e5; activity call: inactive

What did the screen give for CG13947 #1?
firefly reporter light, replicate 1: 1.08e5; firefly reporter light, replicate 2: 70471; Renilla control light, replicate 1: 9.47e5; Renilla control light, replicate 2: 7.62e5; activity call: inactive

For CG13947 #2, how do the results read?
firefly reporter light, replicate 1: 7.12e5; firefly reporter light, replicate 2: 9.08e5; Renilla control light, replicate 1: 1.27e6; Renilla control light, replicate 2: 1.07e6; activity call: inactive

2 entries from above, reformatted:
Gene	reagent	firefly reporter light, replicate 1	firefly reporter light, replicate 2	Renilla control light, replicate 1	Renilla control light, replicate 2	activity call
rnh1 (ribonuclease H1)	1	2.70e5	2.56e5	1.39e6	1.39e6	inactive
Acp53Ea (Accessory gland protein 53Ea)	1	68163	58459	1.07e6	1.07e6	inactive
